Measurements reported in patent US20260130879A1 (IMMUNIC AG, priority 2023, published 2026).
At least one compound was matched to its structure with a doubt left.

Chains of the proteins cited; added tags and fusions are not shown. Residues count along the entry.
UniProt P43354, 360-595 limits assumed: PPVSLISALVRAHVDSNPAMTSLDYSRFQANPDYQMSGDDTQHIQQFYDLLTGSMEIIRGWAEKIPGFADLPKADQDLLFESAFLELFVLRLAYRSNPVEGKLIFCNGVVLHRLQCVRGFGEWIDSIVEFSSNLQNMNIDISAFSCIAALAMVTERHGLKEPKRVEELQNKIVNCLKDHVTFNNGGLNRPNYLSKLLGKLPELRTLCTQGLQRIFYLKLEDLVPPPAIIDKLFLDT

Molecular target: human Nurr1 (Homo sapiens, UniProt P43354)
Assay: Hybrid Gal4-Nurr1 reporter gene assay in HEK293T cells

Structure (SMILES): [2H]C([2H])([2H])Oc1cccc(-c2c(F)c(F)c(NC(=O)c3ccccc3C(=O)O)c(F)c2F)c1 [6/20]
- Nurr1 agonism max. fold activation (range): ++ (++: ≥2-fold to <3-fold)

Structure (SMILES): [2H]C([2H])([2H])Oc1cccc(-c2c(F)c(F)c(NC(=O)C3=C(C(=O)O)COC3)c(F)c2F)c1 [6/6]
- Fold Activation @ 3 μM (3 μM): + (+: ≥1.3-fold to <2-fold)
